Assay results as given in patent publication US20120029038A1, “ANIMAL ECTOPARASITE-CONTROLLING AGENT” (SUMITOMO CHEMICAL COMPANY, LIMITED, priority 2010, published 2012).
Some entries share one result that the patent states for a list of compounds.

How the values were obtained:
Assay type in all cases: in vivo
[1] = test system: ticks (Haemaphysalis longicornis); assay: Oral administration against mouse-infested ticks; conditions: 20 mg in 10 mL test solution at 10 mL per 1 kg body weight, 2 days after administration
[2] = test system: cat fleas (Ctenocephalides felis); assay: Oral administration against mouse-infested cat fleas; conditions: 20 mg in 10 mL test solution at 10 mL per 1 kg body weight, 2 days later
[3] = test system: ticks (Haemaphysalis longicornis); assay: Dropping application against mouse-infested ticks; conditions: 0.1% w/v solution 200 μL dropwise to whole body surface, 2 days after application

For O=C(CC(F)(F)F)NNc1cc(C2=NOC(c3cc(Cl)cc(Cl)c3)(C(F)(F)F)C2)ccc1Cl (stereo not drawn) [(4), N′-{5-[5-(3,5-dichlorophenyl)-5-trifluoromethyl-4,5-dihydroisoxazol-3-yl]-2-chlorophenyl}-3,3,3-trifluoropropionohydrazide], the Mortality [1] was at least 90% and the Mortality [2] was at least 90%.

Work on CN(NC(=O)CC(F)(F)F)c1cc(C2=NOC(c3cc(Cl)cc(Cl)c3)(C(F)(F)F)C2)ccc1Cl (stereo not drawn) [(7), N′-methyl-N′-{2-chloro-5-[5-(3,5-dichlorophenyl)-5-trifluoromethyl-4,5-dihydroisoxazol-3-yl]phenyl}-3,3,3-trifluoropropionohydrazide] yielded a Mortality [3] of at least 70% and a Mortality [1] of at least 90%.

O=C(CCCC(F)(F)F)NNc1cc(C2=NOC(c3cc(Cl)cc(Cl)c3)(C(F)(F)F)C2)ccc1Cl (stereo not drawn) [(10), N′-{2-chloro-5-[5-(3,5-dichlorophenyl)-5-trifluoromethyl-4,5-dihydroisoxazol-3-yl]phenyl}-5,5,5-trifluoropentanohydrazide] was tested, and the Mortality [1] was at least 90% and the Mortality [2] was at least 90%.

O=C(CCC(F)(F)F)NNc1cc(C2=NOC(c3cc(Cl)cc(Cl)c3)(C(F)(F)F)C2)ccc1Cl (stereo not drawn) [Compound (5), N′-{5-[5-(3,5-dichlorophenyl)-5-trifluoromethyl-4,5-dihydroisoxazol-3-yl]-2-chlorophenyl}-4,4,4-trifluorobutyrohydrazide] gave a Mortality [3] of at least 70%, a Mortality [1] of at least 90% and a Mortality [2] of at least 90%.

With CN(NC(=O)CCC(F)(F)F)c1cc(C2=NOC(c3cc(Cl)cc(Cl)c3)(C(F)(F)F)C2)ccc1Cl (stereo not drawn) [Compound (8), N′-methyl-N′-{2-chloro-5-[5-(3,5-dichlorophenyl)-5-trifluoromethyl-4,5-dihydroisoxazol-3-yl]phenyl}-4,4,4-trifluorobutyrohydrazide] the Mortality [3] was at least 70%, the Mortality [1] was at least 90% and the Mortality [2] was at least 90%.
